Results are given in words; binding and its absence hold for the method and conditions named. In cells and extracts the contact can be indirect. Some binding calls cover weakened binding; strength is not graded here. For some assays here: Where a sequence is shown, tags or fusion partners need not be part of it. Each block holds one binder with its values, some of them ahead of it.
How the values were obtained:
[1] = target: FLAG-eIF4A1 (human), P60842; assay: co-IP; conditions: remark: other sources report otherwise
FLAG-eIF4A1 (human) = FLAG-eIF4A1 (human) (UniProt P60842); assay: co-IP

Sequences of proteins named here, by UniProt entry; tags and fusion partners are left off.
UniProt P60842: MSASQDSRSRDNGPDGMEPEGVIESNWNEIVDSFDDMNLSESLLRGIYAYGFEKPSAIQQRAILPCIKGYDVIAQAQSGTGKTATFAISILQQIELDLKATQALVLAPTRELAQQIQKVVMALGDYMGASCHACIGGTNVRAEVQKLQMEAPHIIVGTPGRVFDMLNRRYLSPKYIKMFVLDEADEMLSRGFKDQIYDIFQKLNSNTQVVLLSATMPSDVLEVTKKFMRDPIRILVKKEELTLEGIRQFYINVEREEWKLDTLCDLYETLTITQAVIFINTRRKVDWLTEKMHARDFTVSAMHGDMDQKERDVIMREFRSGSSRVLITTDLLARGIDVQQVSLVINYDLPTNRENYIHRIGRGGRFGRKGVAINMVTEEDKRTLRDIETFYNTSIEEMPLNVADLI

binding [1]: binds
B1: GFP-PAIP1, Q9H074 1-479 (protein)
chain: MSDGFDRAPGAGRGRSRGLGRGGGGPEGGGFPNGAGPAERARHQPPQPKAPGFLQPPPLRQPRTTPPPGAQCEVPASPQRPSRPGALPEQTRPLRAPPSSQDKIPQQNSESAMAKPQVVVAPVLMSKLSVNAPEFYPSGYSSSYTESYEDGCEDYPTLSEYVQDFLNHLTEQPGSFETEIEQFAETLNGCVTTDDALQELVELIYQQATSIPNFSYMGARLCNYLSHHLTISPQSGNFRQLLLQRCRTEYEVKDQAAKGDEVTRKRFHAFVLFLGELYLNLEIKGTNGQVTRADILQVGLRELLNALFSNPMDDNLICAVKLLKLTGSVLEDAWKEKGKMDMEEIIQRIENVVLDANCSRDVKQMLLKLVELRSSNWGRVHATSTYREATPENDPNYFMNEPTFYTSDGVPFTAADPDYQEKYQELLEREDFFPDYEENGTDLSGAGDPYLDDIDDEMDPEIEEAYEKFCLESERKRKQ

binding (FLAG-eIF4A1 (human)): binds
B2: DAP5 (endogenous) (protein, UniProt P78344 1-907)
chain: MESAIAEGGASRFSASSGGGGSRGAPQHYPKTAGNSEFLGKTPGQNAQKWIPARSTRRDDNSAANNSANEKERHDAIFRKVRGILNKLTPEKFDKLCLELLNVGVESKLILKGVILLIVDKALEEPKYSSLYAQLCLRLAEDAPNFDGPAAEGQPGQKQSTTFRRLLISKLQDEFENRTRNVDVYDKRENPLLPEEEEQRAIAKIKMLGNIKFIGELGKLDLIHESILHKCIKTLLEKKKRVQLKDMGEDLECLCQIMRTVGPRLDHERAKSLMDQYFARMCSLMLSKELPARIRFLLQDTVELREHHWVPRKAFLDNGPKTINQIRQDAVKDLGVFIPAPMAQGMRSDFFLEGPFMPPRMKMDRDPLGGLADMFGQMPGSGIGTGPGVIQDRFSPTMGRHRSNQLFNGHGGHIMPPTQSQFGEMGGKFMKSQGLSQLYHNQSQGLLSQLQGQSKDMPPRFSKKGQLNADEISLRPAQSFLMNKNQVPKLQPQITMIPPSAQPPRTQTPPLGQTPQLGLKTNPPLIQEKPAKTSKKPPPSKEELLKLTETVVTEYLNSGNANEAVNGVREMRAPKHFLPEMLSKVIILSLDRSDEDKEKASSLISLLKQEGIATSDNFMQAFLNVLDQCPKLEVDIPLVKSYLAQFAARAIISELVSISELAQPLESGTHFPLFLLCLQQLAKLQDREWLTELFQQSKVNMQKMLPEIDQNKDRMLEILEGKGLSFLFPLLKLEKELLKQIKLDPSPQTIYKWIKDNISPKLHVDKGFVNILMTSFLQYISSEVNPPSDETDSSSAPSKEQLEQEKQLLLSFKPVMQKFLHDHVDLQVSALYALQVHCYNSNFPKGMLLRFFVHFYDMEIIEEEAFLAWKEDITQEFPGKGKALFQVNQWLTWLETAEEEESEEEAD

From doi:10.1101/237610
